Measured values published in PubChem BioAssay AID1347422 (Sanford-Burnham Center for Chemical Genomics, 2020).
The full ranking holds about 1,000 compounds; the median of “thermal shift dTm” is about 0.19, and the highest 2% start at about 1.7. This is one part of the list. Activity calls are given as the source filed them.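 Rule for the calls: active = mean rise in melting temperature of at least 1 degC over same-plate control wells; inactive = below that, where a call was filed.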

Sequences of proteins named here, by UniProt entry; tags and fusion partners are left off. A change or cut given only in a name is not applied to a line headed by its entry.
UniProt O00391: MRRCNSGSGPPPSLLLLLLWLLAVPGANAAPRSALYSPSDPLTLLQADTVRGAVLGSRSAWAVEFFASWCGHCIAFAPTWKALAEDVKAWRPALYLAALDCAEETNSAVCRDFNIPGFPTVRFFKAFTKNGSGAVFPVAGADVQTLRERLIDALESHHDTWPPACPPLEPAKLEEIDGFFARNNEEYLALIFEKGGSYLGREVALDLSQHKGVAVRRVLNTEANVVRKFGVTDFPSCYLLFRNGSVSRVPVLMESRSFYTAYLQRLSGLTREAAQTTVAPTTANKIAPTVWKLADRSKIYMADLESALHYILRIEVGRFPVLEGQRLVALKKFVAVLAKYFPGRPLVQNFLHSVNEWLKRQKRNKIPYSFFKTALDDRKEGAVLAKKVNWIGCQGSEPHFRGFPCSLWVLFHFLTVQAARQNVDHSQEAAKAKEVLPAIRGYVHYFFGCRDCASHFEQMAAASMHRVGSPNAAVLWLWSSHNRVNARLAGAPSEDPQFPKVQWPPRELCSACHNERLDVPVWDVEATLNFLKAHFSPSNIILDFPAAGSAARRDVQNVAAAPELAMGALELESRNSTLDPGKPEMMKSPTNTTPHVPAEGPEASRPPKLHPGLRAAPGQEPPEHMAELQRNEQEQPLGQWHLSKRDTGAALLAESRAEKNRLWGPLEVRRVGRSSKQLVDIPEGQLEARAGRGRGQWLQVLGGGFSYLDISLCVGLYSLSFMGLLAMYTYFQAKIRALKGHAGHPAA

These molecules were tested against Sulfhydryl oxidase 1 (Homo sapiens) (UniProt O00391) (assay: QSOX1 binders by thermal stabilization, confirmation, QSOX1 inhibitor project, biophysical, protein thermal shift, single concentration (AID 1347422;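 note: dTm is compound Tm minus mean Tm of DMSO-only wells on that plate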)). Conditions: recombinant hQSOX1 thermal shift, Sypro Orange, at 25 µM, stronger effect = higher value.
`COc1cc(Nc2nc(-c3ccccc3)cs2)c(OC)cc1Cl` was tested, and the thermal shift dTm was inactive: -0.09 °C. For `CCc1nc2sc(C(=O)c3ccccc3)c(N)c2c2c1CCCC2`, the thermal shift dTm was 0.11 °C. `CCC(=O)Nc1cccc(NC(=S)NC(=O)c2ccco2)c1` showed a thermal shift dTm of 0.04 °C. `CCc1ccc(C(=O)Nc2cccc(NC(=O)c3ccco3)c2)cc1` was tested, and the thermal shift dTm was active: 2.18 °C. Molecule `CCc1ccc(CCC(=O)Nc2ccc(I)cc2)o1` has a thermal shift dTm of 0.35 °C. `O=C(CCSc1nc2sc3c(c2c(=O)[nH]1)CCCC3)Nc1ccccc1` gave a thermal shift dTm of 0.02 °C. For `CCN(C(=O)Nc1ccc(Cl)cc1)c1nnc(-c2ccccc2)s1`, the thermal shift dTm was 0.16 °C. With `Cc1ccc(-c2cc(-c3ccc(F)cc3)n[nH]2)c(O)c1` the thermal shift dTm was active: 1.84 °C. `CC(C)C(=O)Nc1cccc(NC(=O)/C=C/c2ccccc2)c1` was tested, and the thermal shift dTm was inactive: -0.08 °C. `O=c1c(Cc2cc(Cl)cc(Cl)c2O)c(O)nc2n1CCCS2` was tested, and the thermal shift dTm was 0.39 °C. With `CCOc1ccc(NC(=O)Nc2cc(C)ccc2F)cc1` the thermal shift dTm was active: 2.42 °C. Work on `CCOc1cccc(C(=O)Nc2cccc(NC(C)=O)c2)c1` yielded a thermal shift dTm of 0.23 °C. `CC(=O)Nc1ccc(OCc2cccc(Br)c2)cc1` was tested, and the thermal shift dTm was 0.12 °C. With `COc1ccc(C(=O)CSc2n[nH]c(-c3ccccc3)n2)cc1OC` the thermal shift dTm was 0.2 °C. `O=C(O)c1ccc(-c2nc(-c3ccc(Br)cc3)c(-c3ccc(Br)cc3)[nH]2)cc1` showed a thermal shift dTm of 0.01 °C. `COc1ccc(NC(=O)Nc2cc(C(F)(F)F)ccc2F)cc1OC` showed a thermal shift dTm of 0.94 °C. `OCc1ccc(OCc2ccc(I)cc2)cc1` showed a thermal shift dTm of 0.45 °C. In the case of `CS(=O)(=O)c1ccc2nc(NC(=O)COc3ccc4c(c3)CCC4)sc2c1`, the thermal shift dTm is reported as 0.21 °C. Work on `c1ccc2c(c1)oc1c(Nc3ccc4c(c3)OCCO4)ncnc12` yielded a thermal shift dTm of 0.29 °C. `CCOc1ccc(NC(=O)Nc2cnccn2)cc1` gave a thermal shift dTm of 0.09 °C. `O=C(Nc1ccc2c(c1)OCCO2)c1ccc(Br)s1` gave a thermal shift dTm of 0.56 °C. `O=C(CN1C(=O)C2C3C=CC(C4CC34)C2C1=O)Nc1ccc(Br)cc1Cl` (stereo not drawn) gave a thermal shift dTm of 0.03 °C. `O=C(COc1ccc(Cl)cc1)N(Cc1ccccc1)Cc1ccccc1` was tested, and the thermal shift dTm was 0.05 °C. In the case of `O=S1(=O)N=C(Nc2ccc(S(=O)(=O)N3CCCCC3)cc2)c2ccccc21`, the thermal shift dTm is reported as 0.01 °C. `CC(Oc1ccc(Cl)cc1Cl)C(=O)Nc1ccc(C(C)C)cc1` (stereo not drawn) showed a thermal shift dTm of 0.05 °C. For `Cc1ccccc1NC(=O)Nc1ccc(F)c(Cl)c1`, the thermal shift dTm was 0.65 °C. Molecule `CC(=O)c1cccc(NS(=O)(=O)c2ccc(C(=O)Nc3ccccc3)cc2)c1` has a thermal shift dTm of 0.04 °C. In the case of `Cc1ccc(O)c(-c2cc(-c3ccccc3)n[nH]2)c1`, the thermal shift dTm is reported as 0.01 °C. For `CCCC1CC(C)(c2csc(Nc3cccc(C)c3)n2)OC1=O` (stereo not drawn), the thermal shift dTm was 0.11 °C. Molecule `Cc1ccc(C2Nc3ccc(C(=O)O)cc3C3C=CCC32)cc1` (stereo not drawn) has a thermal shift dTm of 0.35 °C. `O=C(COc1ccc(Cl)cc1)N1c2ccccc2Sc2ccccc21` gave a thermal shift dTm of 0.16 °C. With `NC(=O)c1ccc(-c2ccccc2Oc2ccccc2)o1` the thermal shift dTm was 0.23 °C. With `Cc1nc2ncccn2c1-c1csc(Nc2ccccn2)n1` the thermal shift dTm was 0.1 °C. In the case of `CCNS(=O)(=O)c1ccc(NC(=O)Nc2ccc3c(c2)OCO3)cc1`, the thermal shift dTm is reported as 0.8 °C. In the case of `Cc1nonc1CN(C)C(=O)c1cc(COc2cccc(C(F)(F)F)c2)on1`, the thermal shift dTm is reported as inactive: 0 °C. `O/N=C/c1cc(Cl)ccc1OCc1ccc(F)cc1` was tested, and the thermal shift dTm was 0.34 °C. `CC(=O)c1ccc(NC(=O)NNC(=O)Cc2ccc(Cl)c(Cl)c2)cc1` gave a thermal shift dTm of 0.71 °C. Work on `COc1ccc(NC(=S)c2nc3ccccc3s2)cc1` yielded a thermal shift dTm of 0.02 °C. `O=C(O)c1ccc(-n2[nH]c(-c3ccccc3)cc2=O)cc1` showed a thermal shift dTm of 0.79 °C. `NC(=O)c1ccc(-n2c(CCC(=O)O)ccc2-c2ccc(Br)cc2)cc1` showed a thermal shift dTm of 0.02 °C. With `O=C(Nc1ccc(Cl)cc1)Nc1ccc(S(=O)(=O)Nc2ncccn2)cc1` the thermal shift dTm was active: 1.03 °C. Work on `O=C(CCc1ccccc1)n1nc(-c2ccco2)nc1NCc1cccs1` yielded a thermal shift dTm of 0.05 °C. Work on `COc1ccc(OC)c(NC(=O)c2ccc(C)c(S(=O)(=O)Nc3ccc(C)cc3)c2)c1` yielded a thermal shift dTm of 0.05 °C. `CCOc1ccc(NC(=O)Nc2cc(C)ccc2OC)cc1` gave a thermal shift dTm of 0.34 °C. `COc1ccc(-c2noc(-c3ccccc3C(=O)Nc3ccc(NC(C)=O)cc3)n2)cc1` showed a thermal shift dTm of 0.15 °C. For `Cc1cc(C(=O)Nc2ccncc2)sc1-c1ccccc1`, the thermal shift dTm was 0.04 °C. For `N#Cc1sc2nc(-c3ccc(F)cc3F)ccc2c1N`, the thermal shift dTm was 0.51 °C. In the case of `CC1CCc2c(sc3ncn(CC(=O)Nc4ccccc4F)c(=O)c23)C1` (stereo not drawn), the thermal shift dTm is reported as 0.26 °C. With `COc1cc(-c2cccc(-c3ccn[nH]3)c2)ccc1NC(C)=O` the thermal shift dTm was 0.14 °C. `COc1ccc(NC(=O)Nc2ccc3c(c2)CCC3)cc1OC` gave a thermal shift dTm of 0.19 °C. Molecule `COc1ccc(NC(=O)CSc2nncc(=O)[nH]2)cc1Cl` has a thermal shift dTm of 0.18 °C. In the case of `Clc1ccc(CSCCc2nc(-c3ccccn3)no2)cc1Cl`, the thermal shift dTm is reported as inactive: -0.08 °C. `Cc1cc(C)c(C)c(S(=O)(=O)Nc2ccc(C(N)=O)cc2)c1C` gave a thermal shift dTm of 0.1 °C. With `COc1ccc(-c2noc(CSc3nc(-c4ccccc4)cc(=O)[nH]3)n2)cc1OC` the thermal shift dTm was 0.11 °C. `COc1ccc(C(=O)CCC(=O)Nc2ccc(Cl)c(Cl)c2)cc1OC` was tested, and the thermal shift dTm was 0.57 °C. `O=C(Nc1cccc(-c2noc(COc3ccccc3)n2)c1)c1ccco1` showed a thermal shift dTm of 0.24 °C. Molecule `COc1ccc(C(=O)NC(C)Cc2c[nH]c3ccccc23)cc1` (stereo not drawn) has a thermal shift dTm of 0.47 °C. `Cc1nnc(NC(=O)c2ccc(NC(=O)c3ccco3)cc2)s1` showed a thermal shift dTm of 0.7 °C. With `Cc1cc(C(=O)OCC(=O)Nc2ccc(Cl)cc2)c2ccccc2n1` the thermal shift dTm was inactive: -0.03 °C. For `CCOCCOc1cccc(NC(=O)Nc2ccccc2)c1`, the thermal shift dTm was 0.23 °C. `O=C(COc1ccccc1Cl)Nc1cccc(NC(=O)c2ccco2)c1` gave a thermal shift dTm of 0.15 °C. For `COc1ccc(C(C)NC(=O)c2sc3ccccc3c2Cl)cc1OC` (stereo not drawn), the thermal shift dTm was 0.15 °C. Molecule `CC(C)(C)c1ccc(OCCNC(=O)c2cccc(Br)c2)cc1` has a thermal shift dTm of 0.81 °C. For `O=C(Nc1cccc(Cl)c1)N1CCN(Cc2ccco2)CC1`, the thermal shift dTm was inactive: 0 °C. `O=C(Nc1ccc(C(F)(F)F)cc1Cl)c1cc([N+](=O)[O-])[nH]n1` was tested, and the thermal shift dTm was active: 1.73 °C. `CSc1ccccc1NC(=O)Nc1cccc(F)c1` showed a thermal shift dTm of 0.24 °C. In the case of `Cc1cc(NC(=O)Cn2nc(/C=C/c3ccccc3)c3ccccc32)n(C)n1`, the thermal shift dTm is reported as 0.18 °C. `Cc1ccc2nc(-c3ccc(N=Cc4ccc(O)cc4)cc3)sc2c1` gave a thermal shift dTm of 0.01 °C. For `Cc1onc(-c2cccs2)c1-c1nn2c(-c3ccco3)nnc2s1`, the thermal shift dTm was active: 1.23 °C. Molecule `COc1ccc(NC(=O)Nc2cccc3cccnc23)cc1` has a thermal shift dTm of 0.25 °C. `COc1ccc(C(=O)N/C(=C/c2ccc(Br)cc2)c2nc3ccccc3[nH]2)cc1` showed a thermal shift dTm of 0.1 °C. `CCC(c1ccccc1)c1nnc(NC(=O)Nc2ccccc2F)s1` (stereo not drawn) was tested, and the thermal shift dTm was 0.2 °C. In the case of `NC(=O)c1cc(Cc2ccccc2)sc1NC(=O)c1cccs1`, the thermal shift dTm is reported as active: 1.07 °C. `Ic1ccc(OCCCCOc2cccc3cccnc23)cc1` showed a thermal shift dTm of 0.15 °C. Work on `O=C(Nc1ccc(-c2cnc(-c3ccc(NC(=O)C4CC4)cc3)nc2)cc1)C1CC1` yielded a thermal shift dTm of 0.58 °C. For `CNC(=O)c1cc(S(=O)(=O)Nc2ccc(NC(=O)c3ccccc3)cc2)cs1`, the thermal shift dTm was 0.61 °C. Work on `CN(c1cccc(NC(=O)Nc2ccccc2)c1)S(C)(=O)=O` yielded a thermal shift dTm of 0.23 °C. `Cc1nc(-c2cccnc2)sc1C(=O)Nc1cccc(Br)c1` was tested, and the thermal shift dTm was inactive: -0.88 °C. With `Cc1c(Cl)cccc1Nc1nc(-c2ccncc2)cs1` the thermal shift dTm was inactive: -0.03 °C. In the case of `CCc1ccc(-c2cn3cc(C)sc3n2)cc1`, the thermal shift dTm is reported as inactive: -0.08 °C. In the case of `CCOc1ccc2nc(NC(=O)CCCCC(=O)O)sc2c1`, the thermal shift dTm is reported as inactive: -0.04 °C. In the case of `O=C(Nc1cccc(OCc2ccccc2)c1)c1ccco1`, the thermal shift dTm is reported as 0.23 °C. `COc1cccc(C(=O)Nc2nc3ccc(Cl)cc3s2)c1` showed a thermal shift dTm of 0.62 °C. For `Cc1ccc(NC(=O)Nc2ccc(Br)cc2)nc1`, the thermal shift dTm was 0.28 °C. In the case of `COc1ccc(-c2cnc3c(-c4ccc(OC)cc4)cnn3c2N)cc1`, the thermal shift dTm is reported as 0.06 °C. Molecule `CCN(CC)c1nc(C2=C[C+]=C([N+](=O)[O-])C=C2)nc2ccccc12` has a thermal shift dTm of 0.02 °C. Molecule `C(=C\c1nnc(-c2ccccc2)o1)/c1cc2ccccc2o1` has a thermal shift dTm of 0.18 °C. For `Cc1ccc(NC(=O)Cc2cccs2)nc1`, the thermal shift dTm was 0.09 °C. In the case of `COc1ccc(NC(=O)Nc2cccnc2)cc1`, the thermal shift dTm is reported as 0.28 °C. With `Cc1cnc(CNCc2ccccc2OCC(O)CN(C)C2CCCCC2)cn1` (stereo not drawn) the thermal shift dTm was 0.14 °C. `NC(=O)c1cccc(OCc2cccc(Br)c2)c1` gave a thermal shift dTm of 0.14 °C. `Cc1c(-c2cccc(Cl)c2)nc2ccccc2c1C(=O)NCCc1ccccc1` was tested, and the thermal shift dTm was 0.72 °C. For `NC(=O)c1ccc(NC(=O)Nc2cccc3ccccc23)cc1`, the thermal shift dTm was inactive: -1.99 °C. `CCn1c(=O)c(C(=O)Nc2cccc(O)c2)c(O)c2ccccc21` was tested, and the thermal shift dTm was 0.15 °C. `c1ccc(CNc2ncnc3scc(C4COc5ccccc5O4)c23)cc1` (stereo not drawn) was tested, and the thermal shift dTm was 0.77 °C. Molecule `COc1ccc(-c2csc(Nc3ccc(Cl)cn3)n2)cc1` has a thermal shift dTm of 0.16 °C. Molecule `Cc1cc(NC(=O)c2ccccn2)ccc1NC(=O)c1cc2ccccc2o1` has a thermal shift dTm of 0.19 °C. `O=C(Nc1ccc2c(c1)OCO2)c1csc2ccccc12` showed a thermal shift dTm of 0.65 °C. With `N#CC1=C(N)Oc2cc(N)ccc2C1c1ccc(-c2ccccc2)cc1` (stereo not drawn) the thermal shift dTm was 0.25 °C. Molecule `COc1ccc(C(=O)Nc2ccc(-n3nc(C)c4ccccc4c3=O)cc2)cc1OC` has a thermal shift dTm of 0.15 °C. In the case of `COc1ccc(-c2noc(-c3cccc(NC(C)=O)c3)n2)cc1`, the thermal shift dTm is reported as 0.24 °C. `O=C(Nc1ccc2c(c1)OCCO2)c1cccc(NC(=O)c2ccco2)c1` showed a thermal shift dTm of 0.09 °C. `CCCn1c(NCc2ccc(Br)cc2)nc2ccccc21` showed a thermal shift dTm of 0.49 °C. `O=C(NC(=O)C(Cl)(Cl)Cl)Nc1ccc(Cl)c(Cl)c1` gave a thermal shift dTm of 0.47 °C. For `CCC(=O)Nc1ccc(NC(=O)COc2ccc(C)cc2C)cc1`, the thermal shift dTm was 0.15 °C. With `CCOc1ccc(C(=O)Nc2cccc(-c3csc(C)n3)c2)cc1` the thermal shift dTm was inactive: -0.65 °C. In the case of `O=C(CCCN1C(=O)c2ccccc2C1=O)Oc1ccc(-c2ccccc2)cc1`, the thermal shift dTm is reported as 0.21 °C. `C=CCSC1=N/C(=C\c2cc3c(cc2Br)OCO3)C(=O)S1` gave a thermal shift dTm of 0.77 °C. Molecule `CC(=O)Nc1ccc(NC(=O)Nc2ccccc2Cl)cc1` has a thermal shift dTm of 0.94 °C. With `CCc1ccccc1NC(=O)Nc1cccc(F)c1` the thermal shift dTm was 0.38 °C. Work on `CCS(=O)(=O)Nc1ccc(C(=O)Nc2cccc(SC)c2)cc1` yielded a thermal shift dTm of 0.28 °C. Molecule `COc1ccc(NC(=O)CSc2nnc(C)c(=O)[nH]2)cc1Cl` has a thermal shift dTm of 0.32 °C. Work on `C=CCc1c(C)nc2c(-c3ccccc3)cnn2c1NCc1ccccn1` yielded a thermal shift dTm of 0.11 °C.
